Test results reported in paper PMC11086750.
Results are given in words; binding and its absence hold for the method and conditions named. Binding seen in cells or lysates may run through a third protein. Some results given as binding are weak or reduced against the parent protein; the word gives no strength. For some assays here: Tags and fused reporters may be left off the sequences shown.

Protein sequences, listed by entry. Tags and fused reporters are not part of them.
UniProt Q86WV6: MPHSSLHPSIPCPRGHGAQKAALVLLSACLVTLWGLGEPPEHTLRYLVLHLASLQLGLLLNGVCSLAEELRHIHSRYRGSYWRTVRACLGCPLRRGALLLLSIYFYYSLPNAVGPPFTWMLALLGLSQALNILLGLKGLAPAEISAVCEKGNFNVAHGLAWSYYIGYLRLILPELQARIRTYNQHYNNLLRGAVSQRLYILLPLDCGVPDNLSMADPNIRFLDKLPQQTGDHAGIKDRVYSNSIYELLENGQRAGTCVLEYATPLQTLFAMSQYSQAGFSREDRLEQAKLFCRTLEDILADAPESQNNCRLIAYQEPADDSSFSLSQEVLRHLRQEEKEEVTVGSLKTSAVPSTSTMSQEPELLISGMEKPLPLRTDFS

B1: HA-GSDMB (Gasdermin B) (protein, UniProt Q8TAX9 1-416)
chain: MFSVFEEITRIVVKEMDAGGDMIAVRSLVDADRFRCFHLVGEKRTFFGCRHYTTGLTLMDILDTDGDKWLDELDSGLQGQKAEFQILDNVDSTGELIVRLPKEITISGSFQGFHHQKIKISENRISQQYLATLENRKLKRELPFSFRSINTRENLYLVTETLETVKEETLKSDRQYKFWSQISQGHLSYKHKGQREVTIPPNRVLSYRVKQLVFPNKETMNIHFRGKTKSFPEEKDGASSCLGKSLGSEDSRNMKEKLEDMESVLKDLTEEKRKDVLNSLAKCLGKEDIRQDLEQRVSEVLISGELHMEDPDKPLLSSLFNAAGVLVEARAKAILDFLDALLELSEEQQFVAEALEKGTLPLLKDQVKSVMEQNWDELASSPPDMDYDPEARILCALYVVVSILLELAEGPTSVSS
B2: TBK1, Q9UHD2 1-729 (enzyme)
chain: MQSTSNHLWLLSDILGQGATANVFRGRHKKTGDLFAIKVFNNISFLRPVDVQMREFEVLKKLNHKNIVKLFAIEEETTTRHKVLIMEFCPCGSLYTVLEEPSNAYGLPESEFLIVLRDVVGGMNHLRENGIVHRDIKPGNIMRVIGEDGQSVYKLTDFGAARELEDDEQFVSLYGTEEYLHPDMYERAVLRKDHQKKYGATVDLWSIGVTFYHAATGSLPFRPFEGPRRNKEVMYKIITGKPSGAISGVQKAENGPIDWSGDMPVSCSLSRGLQVLLTPVLANILEADQEKCWGFDQFFAETSDILHRMVIHVFSLQQMTAHKIYIHSYNTATIFHELVYKQTKIISSNQELIYEGRRLVLEPGRLAQHFPKTTEENPIFVVSREPLNTIGLIYEKISLPKVHPRYDLDGDASMAKAITGVVCYACRIASTLLLYQELMRKGIRWLIELIKDDYNETVHKKTEVVITLDFCIRNIEKTVKVYEKLMKINLEAAELGEISDIHTKLLRLSSSQGTIETSLQDIDSRLSPGGSLADAWAHQEGTHPKDRNVEKLQVLLNCMTEIYYQFKKDKAERRLAYNEEQIHKFDKQKLYYHATKAMTHFTDECVKKYEAFLNKSEEWIRKMLHLRKQLLSLTNQCFDIEEEVSKYQEYTNELQETLPQKMFTASSGIKHTMTPIYPSSNTLVEMTLGMKKLKEEMEGVVKELAENNHILERFGSLTMDGGLRNVDCL

Key:
[1] = molecular target: FLAG-STING (stimulator of interferon genes) (UniProt Q86WV6); assay: co-IP; HEK293 cells co-transfected with a FLAG-tagged and an HA-tagged protein; IP with anti-FLAG beads, immunoblot with HA antibody
[2] = molecular target: Flag-STING expressed in BEAS-2B cells, Q86WV6; assay: co-IP; EV or GSDMB KO BEAS-2B cells transfected with Flag-STING; IP with anti-FLAG beads, immunoblot with anti-TBK1 antibody; details: remark: other sources report otherwise

Row | Binder | binding [1] | binding [2]
1 | B1 | binds | 
2 | B2 |  | binds
